*: point of attachment. DOTA = O=C(O)CN1CCN(CC(=O)O)CCN(CC(=O)*)CCN(CC(=O)O)CC1; NOTA = O=C(O)CN1CCN(CC(=O)O)CCN(CC(=O)*)CC1
Experiments:
[1] = general procedure: Fmoc solid-phase peptide synthesis; 2-CTC Resin; HOBT/HBTU/DIEA; details: whole synthesis, scale of the general procedure 0.5 mmol
[2] = general procedure: Fmoc solid-phase peptide synthesis; 2-CTC resin; HOBT/HBTU/DIEA; details: whole synthesis, scale 0.5 mmol

Row | Substance | final purity (method not given) [1] | crude mass [2] | isolated mass [2]
1 | {NOTA}-DVINF-OH | 98.84% | 427 mg | 30.52 mg
2 | {DOTA}-NDVIN-OH | 97.97% | – | –

— patent publication US20260014285A1 (HANGZHOU HEALTHYTIDE BIOTECHNOLOGY CO., LTD., priority 2022, published 2026)
